Measured values published in the supplement of paper PMC8728848.
This is one part of the list.

How the values were obtained:
Test in all cases: glycan array binding signal (z-score within array); higher = stronger binding
Conditions in all cases: glycan notation: IUPAC condensed, linker removed
[1] = molecular target: Gal(b1-4)GlcNAc(b1-3)Gal(b1-4)GlcNAc(b1-3)Gal(b1-4)GlcNAc(b1-3)Gal(b1-4)GlcNAc(b1-2)Man(a1-3)[Gal(b1-4)GlcNAc(b1-3)Gal(b1-4)GlcNAc(b1-3)Gal(b1-4)GlcNAc(b1-3)Gal(b1-4)GlcNAc(b1-2)Man(a1-6)]Man(b1-4)GlcNAc(b1-4)[Fuc(a1-6)]GlcNAc
In short: (§1)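 Glycan array data came from 3228 arrays in the Consortium for Functional Glycomics database, and only arrays with an available protein sequence were kept. Glycan names were put into IUPAC-condensed notation, and columns mapping to the same glycan were averaged. The binding signal is a within-array Z-score, averaged across arrays of one protein sequence run at different concentrations or buffers and across linkers. A negative Z-score can be read as non-binding.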

[2] = molecular target: Gal(b1-4)GlcNAc(b1-3)Gal(b1-4)GlcNAc(b1-3)Gal(b1-4)GlcNAc(b1-3)Gal(b1-4)GlcNAc(b1-2)[Gal(b1-4)GlcNAc(b1-3)Gal(b1-4)GlcNAc(b1-3)Gal(b1-4)GlcNAc(b1-3)Gal(b1-4)GlcNAc(b1-6)]Man(a1-6)[Gal(b1-4)GlcNAc(b1-3)Gal(b1-4)GlcNAc(b1-3)Gal(b1-4)GlcNAc(b1-3)Gal(b1-4)GlcNAc(b1-2)Man(a1-3)]Man(b1-4)GlcNAc(b1-4)[Fuc(a1-6)]GlcNAc
In short: as §1

[3] = molecular target: Gal(b1-4)GlcNAc(b1-3)Gal(b1-4)GlcNAc(b1-3)Gal(b1-4)GlcNAc(b1-3)Gal(b1-4)GlcNAc(b1-3)Gal(b1-4)GlcNAc(b1-2)Man(a1-3)[Gal(b1-4)GlcNAc(b1-3)Gal(b1-4)GlcNAc(b1-3)Gal(b1-4)GlcNAc(b1-3)Gal(b1-4)GlcNAc(b1-3)Gal(b1-4)GlcNAc(b1-2)Man(a1-6)]Man(b1-4)GlcNAc(b1-4)GlcNAc
In short: as §1

[4] = molecular target: Gal(b1-4)GlcNAc(b1-3)Gal(b1-4)GlcNAc(b1-3)Gal(b1-4)GlcNAc(b1-3)Gal(b1-4)GlcNAc(b1-3)Gal(b1-4)GlcNAc(b1-2)Man(a1-3)[Gal(b1-4)GlcNAc(b1-3)Gal(b1-4)GlcNAc(b1-3)Gal(b1-4)GlcNAc(b1-3)Gal(b1-4)GlcNAc(b1-3)Gal(b1-4)GlcNAc(b1-2)Man(a1-6)]Man(b1-4)GlcNAc(b1-4)[Fuc(a1-6)]GlcNAc
In short: as §1

[5] = molecular target: Gal(b1-4)GlcNAc(b1-3)Gal(b1-4)GlcNAc(b1-3)Gal(b1-4)GlcNAc(b1-3)Gal(b1-4)GlcNAc(b1-3)Gal(b1-4)GlcNAc(b1-2)[Gal(b1-4)GlcNAc(b1-3)Gal(b1-4)GlcNAc(b1-3)Gal(b1-4)GlcNAc(b1-3)Gal(b1-4)GlcNAc(b1-3)Gal(b1-4)GlcNAc(b1-6)]Man(a1-6)[Gal(b1-4)GlcNAc(b1-3)Gal(b1-4)GlcNAc(b1-3)Gal(b1-4)GlcNAc(b1-3)Gal(b1-4)GlcNAc(b1-3)Gal(b1-4)GlcNAc(b1-2)Man(a1-3)]Man(b1-4)GlcNAc(b1-4)[Fuc(a1-6)]GlcNAc
In short: as §1

[6] = molecular target: Gal(b1-4)GlcNAc(b1-3)Gal(b1-4)GlcNAc(b1-3)Gal(b1-4)GlcNAc(b1-3)Gal(b1-4)GlcNAc(b1-3)Gal(b1-4)GlcNAc(b1-3)Gal(b1-4)GlcNAc(b1-2)Man(a1-3)[Gal(b1-4)GlcNAc(b1-3)Gal(b1-4)GlcNAc(b1-3)Gal(b1-4)GlcNAc(b1-3)Gal(b1-4)GlcNAc(b1-3)Gal(b1-4)GlcNAc(b1-3)Gal(b1-4)GlcNAc(b1-2)Man(a1-6)]Man(b1-4)GlcNAc(b1-4)GlcNAc
In short: as §1

[7] = molecular target: Gal(b1-4)GlcNAc(b1-3)Gal(b1-4)GlcNAc(b1-3)GalNAc
In short: as §1

[8] = molecular target: Gal(b1-4)GlcNAc(b1-3)Gal(b1-4)GlcNAc(b1-3)[Gal(b1-4)GlcNAc(b1-3)Gal(b1-4)GlcNAc(b1-6)]GalNAc
In short: as §1

[9] = molecular target: Gal(b1-4)GlcNAc(b1-3)Gal(b1-4)GlcNAc(b1-6)[Gal(b1-3)]GalNAc
In short: as §1

[10] = molecular target: Gal(b1-4)GlcNAc(b1-3)Gal(b1-4)[Fuc(a1-3)]GlcNAc(b1-3)Gal(b1-4)[Fuc(a1-3)]GlcNAc
In short: as §1

[11] = molecular target: Gal(b1-4)GlcNAc(b1-3)GalNAc
In short: as §1

[12] = molecular target: Gal(b1-4)GlcNAc(b1-3)[Fuc(a1-3)GlcNAc(b1-6)]Gal(b1-4)Glc
In short: as §1

[13] = molecular target: Gal(b1-4)GlcNAc(b1-3)[Gal(b1-4)GlcNAc(b1-6)]Gal(b1-4)GlcNAc
In short: as §1

[14] = molecular target: Gal(b1-4)GlcNAc(b1-3)[GlcNAc(b1-6)]Gal(b1-4)GlcNAc
In short: as §1

[15] = molecular target: Gal(b1-4)GlcNAc(b1-6)Gal(b1-4)GlcNAc
In short: as §1

[16] = molecular target: Gal(b1-4)GlcNAc(b1-6)GalNAc
In short: as §1

[17] = molecular target: Gal(b1-4)GlcNAc(b1-6)[Gal(b1-3)]GalNAc
In short: as §1

[18] = molecular target: Gal(b1-4)GlcNAc(b1-6)[Gal(b1-4)GlcNAc(b1-3)]GalNAc
In short: as §1

Gal(b1-4)GlcNAc6P = molecular target: Gal(b1-4)GlcNAc6P
In short: as §1

Gal(b1-6)Gal = molecular target: Gal(b1-6)Gal
In short: as §1

Gal3S(b1-3)GalNAc = molecular target: Gal3S(b1-3)GalNAc
In short: as §1

Gal3S(b1-3)GlcNAc = molecular target: Gal3S(b1-3)GlcNAc
In short: as §1

[19] = molecular target: Gal3S(b1-3)[Fuc(a1-4)]GlcNAc
In short: as §1

Gal3S(b1-4)Glc = molecular target: Gal3S(b1-4)Glc
In short: as §1

Gal3S(b1-4)Glc6S = molecular target: Gal3S(b1-4)Glc6S
In short: as §1

Gal3S(b1-4)GlcNAc = molecular target: Gal3S(b1-4)GlcNAc
In short: as §1

[20] = molecular target: Gal3S(b1-4)[Fuc(a1-3)]Glc6S
In short: as §1

[21] = molecular target: Gal3S(b1-4)[Fuc(a1-3)]GlcNAc
In short: as §1

[22] = molecular target: Gal3S(b1-4)[Fuc(a1-3)]GlcNAc6S
In short: as §1

Gal3S4S(b1-4)GlcNAc = molecular target: Gal3S4S(b1-4)GlcNAc
In short: as §1

Gal3S6S(b1-4)GlcNAc = molecular target: Gal3S6S(b1-4)GlcNAc
In short: as §1

Gal3S6S(b1-4)GlcNAc6S = molecular target: Gal3S6S(b1-4)GlcNAc6S
In short: as §1

Gal4S(b1-4)GlcNAc = molecular target: Gal4S(b1-4)GlcNAc
In short: as §1

Gal4S6S(b1-4)GlcNAc = molecular target: Gal4S6S(b1-4)GlcNAc
In short: as §1

Gal6P(b1-4)GlcNAc = molecular target: Gal6P(b1-4)GlcNAc
In short: as §1

Gal6S(b1-3)GlcNAc = molecular target: Gal6S(b1-3)GlcNAc
In short: as §1

Gal6S(b1-3)GlcNAc6S = molecular target: Gal6S(b1-3)GlcNAc6S
In short: as §1

Gal6S(b1-4)Glc = molecular target: Gal6S(b1-4)Glc
In short: as §1

B1: PX14375A-pdi-503-28-503 (Parabacteroides distasonis) (protein)
chain: PLGSPEAGDISEERQAFLRLTAVYSVMKDFRYTWSMQCFGDVLSNDATYSGSSNDAQTFTLLENYQYQADHTEILNKYRYSYQCINKANLFIRDMEMADDALFSKYDKEQMIGEAKFIRAYTYFELVKTFGGVPCYTGVLDLDHERLGRASVEEIYSVIEQDLNDAVSVLPKKSEVANYESSYAGRITKGAAIAMQTRIYLYEKKYDEVKKAFEKFQNECGGEYSLVAPEDYTWQFSLDGEHCSSSILEVNMYNSSTQSSYNVNNGNRHVLMSMPRNMTIGFGCAQPTQALADAYDAEGDVIRKKTTLLSTEEAIEIETAAKGDVAPVTDDRTGWYNRKLYLAPGQREENRGNNQPTNLRLIRLAEVYLNYAEACYFSGDIANAQKYLNEVRSHVNLAPKNHTGSQLFEDIMNERHLEFGMEGFRFFDVVRVGWGEKVFNGTKKAEFGAKTPFSAGAEVLPIPQTEIDISDGLITN
[1]
  glycan array binding signal (z-score): -0.111
[2]
  glycan array binding signal (z-score): 0.237
[3]
  glycan array binding signal (z-score): 0.24
[4]
  glycan array binding signal (z-score): 0.535
[5]
  glycan array binding signal (z-score): 0.135
[6]
  glycan array binding signal (z-score): -0.535
[7]
  glycan array binding signal (z-score): -0.556
[8]
  glycan array binding signal (z-score): 0.529
[9]
  glycan array binding signal (z-score): -0.143
[10]
  glycan array binding signal (z-score): -0.205
[11]
  glycan array binding signal (z-score): -0.462
[12]
  glycan array binding signal (z-score): -0.097
[13]
  glycan array binding signal (z-score): 0.207
[14]
  glycan array binding signal (z-score): -0.288
[15]
  glycan array binding signal (z-score): 0.408
[16]
  glycan array binding signal (z-score): -0.315
[17]
  glycan array binding signal (z-score): 0.222
[18]
  glycan array binding signal (z-score): 0.131
Gal(b1-4)GlcNAc6P
  glycan array binding signal (z-score): -0.091
Gal(b1-6)Gal
  glycan array binding signal (z-score): -0.531
Gal3S(b1-3)GalNAc
  glycan array binding signal (z-score): -1.02
Gal3S(b1-3)GlcNAc
  glycan array binding signal (z-score): -0.14
[19]
  glycan array binding signal (z-score): 0.083
Gal3S(b1-4)Glc
  glycan array binding signal (z-score): -0.196
Gal3S(b1-4)Glc6S
  glycan array binding signal (z-score): -0.046
Gal3S(b1-4)GlcNAc
  glycan array binding signal (z-score): -0.111
[20]
  glycan array binding signal (z-score): 1.05
[21]
  glycan array binding signal (z-score): -0.085
[22]
  glycan array binding signal (z-score): 0.239
Gal3S4S(b1-4)GlcNAc
  glycan array binding signal (z-score): -0.718
Gal3S6S(b1-4)GlcNAc
  glycan array binding signal (z-score): 0.764
Gal3S6S(b1-4)GlcNAc6S
  glycan array binding signal (z-score): 1.32
Gal4S(b1-4)GlcNAc
  glycan array binding signal (z-score): -0.866
Gal4S6S(b1-4)GlcNAc
  glycan array binding signal (z-score): -0.631
Gal6P(b1-4)GlcNAc
  glycan array binding signal (z-score): 0.04
Gal6S(b1-3)GlcNAc
  glycan array binding signal (z-score): -0.165
Gal6S(b1-3)GlcNAc6S
  glycan array binding signal (z-score): 0.176
Gal6S(b1-4)Glc
  glycan array binding signal (z-score): -0.106
